Test results reported in paper doi:10.1101/153304.
No constants are given. Whether binding was seen depends on the method and setting. In cells and extracts the contact can be indirect. Some entries that bind do so weakly or less than the wild type.

By UniProt entry, the sequences of proteins in these tests, tags left out.
UniProt Q99996: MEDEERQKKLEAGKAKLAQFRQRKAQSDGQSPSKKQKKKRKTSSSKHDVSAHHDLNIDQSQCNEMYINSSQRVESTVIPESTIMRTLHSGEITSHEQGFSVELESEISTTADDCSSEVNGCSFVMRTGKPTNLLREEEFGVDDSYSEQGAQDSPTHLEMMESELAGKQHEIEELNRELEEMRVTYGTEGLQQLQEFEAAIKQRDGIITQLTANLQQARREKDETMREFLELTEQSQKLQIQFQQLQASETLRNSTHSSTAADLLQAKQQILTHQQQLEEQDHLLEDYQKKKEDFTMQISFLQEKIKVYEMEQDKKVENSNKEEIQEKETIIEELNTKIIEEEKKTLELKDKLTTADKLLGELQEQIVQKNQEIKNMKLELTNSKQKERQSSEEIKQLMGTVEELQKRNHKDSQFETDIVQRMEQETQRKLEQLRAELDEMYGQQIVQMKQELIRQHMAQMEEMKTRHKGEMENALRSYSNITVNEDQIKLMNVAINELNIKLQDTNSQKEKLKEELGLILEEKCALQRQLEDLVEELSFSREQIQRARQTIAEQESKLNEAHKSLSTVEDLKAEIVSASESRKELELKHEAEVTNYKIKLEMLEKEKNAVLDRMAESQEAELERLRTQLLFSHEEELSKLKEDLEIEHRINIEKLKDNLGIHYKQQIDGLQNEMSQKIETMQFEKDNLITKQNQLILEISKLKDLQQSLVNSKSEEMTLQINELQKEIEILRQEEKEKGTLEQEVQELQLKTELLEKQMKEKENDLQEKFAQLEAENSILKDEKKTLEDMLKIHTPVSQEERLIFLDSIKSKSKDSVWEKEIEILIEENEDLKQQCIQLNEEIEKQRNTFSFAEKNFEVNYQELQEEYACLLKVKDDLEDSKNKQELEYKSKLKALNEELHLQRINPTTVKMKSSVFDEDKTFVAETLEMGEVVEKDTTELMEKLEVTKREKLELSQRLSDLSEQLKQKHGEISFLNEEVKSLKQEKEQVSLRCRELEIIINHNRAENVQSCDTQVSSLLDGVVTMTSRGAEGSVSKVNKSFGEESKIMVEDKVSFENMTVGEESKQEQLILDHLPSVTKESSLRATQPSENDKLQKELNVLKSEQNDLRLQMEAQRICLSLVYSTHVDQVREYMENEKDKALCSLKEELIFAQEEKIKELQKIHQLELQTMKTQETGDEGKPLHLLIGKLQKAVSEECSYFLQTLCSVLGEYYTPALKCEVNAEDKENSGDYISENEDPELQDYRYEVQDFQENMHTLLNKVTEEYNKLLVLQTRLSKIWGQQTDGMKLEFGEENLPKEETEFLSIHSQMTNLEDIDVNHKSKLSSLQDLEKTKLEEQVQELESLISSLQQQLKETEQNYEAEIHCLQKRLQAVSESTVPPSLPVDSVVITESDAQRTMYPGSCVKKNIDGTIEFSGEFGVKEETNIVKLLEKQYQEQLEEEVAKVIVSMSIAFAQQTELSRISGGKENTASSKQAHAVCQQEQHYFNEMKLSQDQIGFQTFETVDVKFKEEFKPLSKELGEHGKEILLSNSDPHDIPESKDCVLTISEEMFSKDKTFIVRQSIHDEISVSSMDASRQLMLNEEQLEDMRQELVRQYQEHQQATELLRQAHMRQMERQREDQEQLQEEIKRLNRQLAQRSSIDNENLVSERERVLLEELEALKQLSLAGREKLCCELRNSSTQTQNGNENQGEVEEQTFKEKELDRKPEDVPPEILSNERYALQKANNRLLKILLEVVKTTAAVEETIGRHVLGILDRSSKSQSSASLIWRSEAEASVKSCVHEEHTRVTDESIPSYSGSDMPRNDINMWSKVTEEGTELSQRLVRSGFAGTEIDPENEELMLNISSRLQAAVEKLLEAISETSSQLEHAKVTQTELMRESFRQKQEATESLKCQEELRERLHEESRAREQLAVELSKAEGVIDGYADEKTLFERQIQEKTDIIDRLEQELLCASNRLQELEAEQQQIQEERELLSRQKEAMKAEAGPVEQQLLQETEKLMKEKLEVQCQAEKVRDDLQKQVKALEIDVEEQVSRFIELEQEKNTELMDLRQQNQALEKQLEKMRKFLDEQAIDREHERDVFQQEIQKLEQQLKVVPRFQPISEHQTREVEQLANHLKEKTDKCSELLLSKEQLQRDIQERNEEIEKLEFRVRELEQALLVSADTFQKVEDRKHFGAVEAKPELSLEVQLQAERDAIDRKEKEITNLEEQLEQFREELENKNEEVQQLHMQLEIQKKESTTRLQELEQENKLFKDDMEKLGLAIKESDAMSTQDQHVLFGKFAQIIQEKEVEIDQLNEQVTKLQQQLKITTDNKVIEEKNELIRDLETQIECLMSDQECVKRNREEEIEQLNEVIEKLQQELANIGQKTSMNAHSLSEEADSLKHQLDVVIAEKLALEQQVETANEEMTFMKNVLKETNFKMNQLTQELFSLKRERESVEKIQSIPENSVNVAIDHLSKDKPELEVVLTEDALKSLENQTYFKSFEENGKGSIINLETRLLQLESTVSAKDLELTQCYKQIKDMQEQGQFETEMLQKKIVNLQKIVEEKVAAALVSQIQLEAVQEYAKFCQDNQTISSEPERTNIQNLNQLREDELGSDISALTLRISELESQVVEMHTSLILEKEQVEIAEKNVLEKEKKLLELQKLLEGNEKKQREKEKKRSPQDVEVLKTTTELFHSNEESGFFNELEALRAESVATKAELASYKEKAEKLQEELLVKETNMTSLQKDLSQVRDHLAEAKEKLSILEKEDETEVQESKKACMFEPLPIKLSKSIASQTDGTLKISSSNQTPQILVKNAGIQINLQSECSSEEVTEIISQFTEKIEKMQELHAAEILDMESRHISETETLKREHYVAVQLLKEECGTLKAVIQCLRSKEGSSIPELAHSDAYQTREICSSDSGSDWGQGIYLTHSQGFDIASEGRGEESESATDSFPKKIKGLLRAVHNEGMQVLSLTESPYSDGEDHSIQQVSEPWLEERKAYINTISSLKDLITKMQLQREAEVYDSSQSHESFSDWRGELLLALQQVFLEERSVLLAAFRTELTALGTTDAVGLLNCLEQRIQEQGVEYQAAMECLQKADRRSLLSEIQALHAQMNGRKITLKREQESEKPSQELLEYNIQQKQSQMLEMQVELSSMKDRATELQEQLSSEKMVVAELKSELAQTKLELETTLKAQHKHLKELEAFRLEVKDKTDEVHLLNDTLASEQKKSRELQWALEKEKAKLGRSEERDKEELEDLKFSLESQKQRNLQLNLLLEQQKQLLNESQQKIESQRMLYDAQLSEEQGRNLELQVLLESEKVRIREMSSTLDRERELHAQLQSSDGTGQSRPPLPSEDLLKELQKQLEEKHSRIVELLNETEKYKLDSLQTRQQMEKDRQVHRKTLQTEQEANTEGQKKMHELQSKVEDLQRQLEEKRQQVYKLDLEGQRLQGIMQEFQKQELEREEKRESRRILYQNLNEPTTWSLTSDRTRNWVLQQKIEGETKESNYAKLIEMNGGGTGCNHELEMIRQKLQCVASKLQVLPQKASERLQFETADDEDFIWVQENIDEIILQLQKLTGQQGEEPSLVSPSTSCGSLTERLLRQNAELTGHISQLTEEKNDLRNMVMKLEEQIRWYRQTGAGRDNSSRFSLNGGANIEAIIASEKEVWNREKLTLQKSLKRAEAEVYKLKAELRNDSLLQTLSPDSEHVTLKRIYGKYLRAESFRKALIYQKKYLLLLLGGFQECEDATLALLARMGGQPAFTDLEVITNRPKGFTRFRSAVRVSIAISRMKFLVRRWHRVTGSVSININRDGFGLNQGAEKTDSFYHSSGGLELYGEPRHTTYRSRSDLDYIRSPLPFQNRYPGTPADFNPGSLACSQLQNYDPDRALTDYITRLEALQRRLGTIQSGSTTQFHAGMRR
UniProt Q96SN8: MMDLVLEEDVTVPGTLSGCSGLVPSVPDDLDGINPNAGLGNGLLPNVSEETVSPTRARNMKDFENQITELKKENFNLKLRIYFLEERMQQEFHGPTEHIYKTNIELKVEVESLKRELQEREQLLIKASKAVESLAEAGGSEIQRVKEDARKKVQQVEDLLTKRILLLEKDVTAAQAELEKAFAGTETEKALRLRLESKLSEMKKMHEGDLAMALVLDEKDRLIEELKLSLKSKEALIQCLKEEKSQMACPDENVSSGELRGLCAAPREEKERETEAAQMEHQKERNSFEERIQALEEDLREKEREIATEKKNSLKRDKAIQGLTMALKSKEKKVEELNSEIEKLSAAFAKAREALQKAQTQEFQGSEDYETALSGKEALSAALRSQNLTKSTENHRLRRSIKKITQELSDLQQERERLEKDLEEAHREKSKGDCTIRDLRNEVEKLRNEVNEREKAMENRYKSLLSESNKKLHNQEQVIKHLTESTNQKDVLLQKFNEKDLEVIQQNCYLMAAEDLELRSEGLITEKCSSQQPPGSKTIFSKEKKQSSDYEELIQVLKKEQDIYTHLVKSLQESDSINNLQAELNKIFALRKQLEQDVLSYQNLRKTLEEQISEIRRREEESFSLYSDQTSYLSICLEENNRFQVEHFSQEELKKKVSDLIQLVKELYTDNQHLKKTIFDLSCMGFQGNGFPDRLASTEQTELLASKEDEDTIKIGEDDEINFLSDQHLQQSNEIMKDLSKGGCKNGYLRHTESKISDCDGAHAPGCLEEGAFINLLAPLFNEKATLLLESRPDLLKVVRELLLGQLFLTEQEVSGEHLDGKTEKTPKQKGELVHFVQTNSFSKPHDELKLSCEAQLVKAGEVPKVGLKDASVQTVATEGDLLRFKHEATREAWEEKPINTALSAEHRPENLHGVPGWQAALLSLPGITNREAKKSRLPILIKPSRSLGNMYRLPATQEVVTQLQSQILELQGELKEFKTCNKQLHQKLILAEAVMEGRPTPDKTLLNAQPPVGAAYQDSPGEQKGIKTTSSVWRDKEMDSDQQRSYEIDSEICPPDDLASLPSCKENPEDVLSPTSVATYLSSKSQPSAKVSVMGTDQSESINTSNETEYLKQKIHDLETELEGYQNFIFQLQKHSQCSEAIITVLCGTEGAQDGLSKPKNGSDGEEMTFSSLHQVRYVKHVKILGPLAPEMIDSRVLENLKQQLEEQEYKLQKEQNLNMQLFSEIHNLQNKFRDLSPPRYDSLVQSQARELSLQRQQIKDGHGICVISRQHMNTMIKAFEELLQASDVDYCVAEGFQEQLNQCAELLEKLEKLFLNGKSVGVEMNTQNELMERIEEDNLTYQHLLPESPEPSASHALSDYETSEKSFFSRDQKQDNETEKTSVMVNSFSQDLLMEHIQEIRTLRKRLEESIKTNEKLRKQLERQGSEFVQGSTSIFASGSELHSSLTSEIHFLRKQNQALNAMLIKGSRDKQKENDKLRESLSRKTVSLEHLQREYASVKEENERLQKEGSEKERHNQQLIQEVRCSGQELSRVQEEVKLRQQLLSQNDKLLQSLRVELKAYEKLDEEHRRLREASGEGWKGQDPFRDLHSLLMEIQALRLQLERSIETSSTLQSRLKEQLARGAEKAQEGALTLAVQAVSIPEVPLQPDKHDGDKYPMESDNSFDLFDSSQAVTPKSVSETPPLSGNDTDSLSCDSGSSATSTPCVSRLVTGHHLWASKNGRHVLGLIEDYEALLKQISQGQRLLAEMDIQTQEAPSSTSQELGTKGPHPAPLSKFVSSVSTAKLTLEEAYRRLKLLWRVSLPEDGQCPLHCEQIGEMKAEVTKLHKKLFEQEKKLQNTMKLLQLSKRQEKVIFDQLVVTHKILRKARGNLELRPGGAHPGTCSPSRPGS

Tests used:
[1] = molecular target: AKAP450 (human (endogenous in hTERT-RPE1 or HeLa; cell line of the co-IP not stated)) (UniProt Q99996); assay: co-IP
[2] = molecular target: Pericentrin (human (endogenous in hTERT-RPE1 or HeLa; cell line of the co-IP not stated)) (UniProt O95613); assay: co-IP

For CDK5Rap2 (from UniProt Q96SN8 1-1893), the binding [1] was “binds” and the binding [2] was “binds”.
